Measurements: article PMC2565686
These are yes or no findings as the source states them, for the method shown. In cells and extracts the contact can be indirect. Some entries that bind do so weakly or less than the wild type.

Sequences of proteins named here, by UniProt entry; tags and fusion partners are left off.
UniProt Q9Y6R4: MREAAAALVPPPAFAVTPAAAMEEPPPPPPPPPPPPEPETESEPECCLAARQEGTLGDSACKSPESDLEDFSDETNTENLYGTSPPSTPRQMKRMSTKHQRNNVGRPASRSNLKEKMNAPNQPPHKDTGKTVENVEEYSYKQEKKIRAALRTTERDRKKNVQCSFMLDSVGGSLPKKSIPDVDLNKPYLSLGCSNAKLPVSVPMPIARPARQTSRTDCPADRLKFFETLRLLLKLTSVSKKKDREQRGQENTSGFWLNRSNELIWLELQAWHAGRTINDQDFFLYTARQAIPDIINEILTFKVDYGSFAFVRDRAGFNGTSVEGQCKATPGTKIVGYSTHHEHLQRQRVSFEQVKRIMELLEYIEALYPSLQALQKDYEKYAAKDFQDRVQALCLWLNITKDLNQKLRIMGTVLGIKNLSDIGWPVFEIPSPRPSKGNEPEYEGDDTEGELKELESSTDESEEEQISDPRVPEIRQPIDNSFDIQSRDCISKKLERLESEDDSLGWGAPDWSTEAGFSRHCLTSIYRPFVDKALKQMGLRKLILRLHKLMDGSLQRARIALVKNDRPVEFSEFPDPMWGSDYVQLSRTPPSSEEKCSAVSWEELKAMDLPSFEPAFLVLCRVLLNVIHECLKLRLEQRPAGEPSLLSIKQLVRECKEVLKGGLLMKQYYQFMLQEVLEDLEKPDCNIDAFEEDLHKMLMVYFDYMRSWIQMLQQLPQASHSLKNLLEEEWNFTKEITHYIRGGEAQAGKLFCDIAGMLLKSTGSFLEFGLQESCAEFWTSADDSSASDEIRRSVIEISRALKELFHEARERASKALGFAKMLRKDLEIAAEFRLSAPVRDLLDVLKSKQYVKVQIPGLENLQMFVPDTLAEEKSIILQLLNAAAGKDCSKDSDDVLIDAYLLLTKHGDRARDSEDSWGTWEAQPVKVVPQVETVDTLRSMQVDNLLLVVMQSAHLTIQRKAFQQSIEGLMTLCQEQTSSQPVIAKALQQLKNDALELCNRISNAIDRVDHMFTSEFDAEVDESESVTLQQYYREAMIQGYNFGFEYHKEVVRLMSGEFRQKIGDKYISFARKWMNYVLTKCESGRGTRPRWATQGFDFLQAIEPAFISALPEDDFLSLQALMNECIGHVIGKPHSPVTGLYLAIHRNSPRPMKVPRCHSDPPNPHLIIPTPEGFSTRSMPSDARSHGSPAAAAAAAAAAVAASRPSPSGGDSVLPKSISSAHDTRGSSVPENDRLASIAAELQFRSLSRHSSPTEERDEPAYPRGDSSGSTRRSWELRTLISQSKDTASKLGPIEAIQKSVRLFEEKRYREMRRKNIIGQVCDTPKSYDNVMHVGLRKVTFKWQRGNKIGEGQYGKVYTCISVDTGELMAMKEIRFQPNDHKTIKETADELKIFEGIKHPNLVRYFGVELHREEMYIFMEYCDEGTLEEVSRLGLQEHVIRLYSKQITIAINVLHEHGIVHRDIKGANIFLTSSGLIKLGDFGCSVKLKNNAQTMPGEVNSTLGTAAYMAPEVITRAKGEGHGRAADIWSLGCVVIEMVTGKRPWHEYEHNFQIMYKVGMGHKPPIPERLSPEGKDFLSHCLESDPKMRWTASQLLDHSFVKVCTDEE
UniProt Q16539: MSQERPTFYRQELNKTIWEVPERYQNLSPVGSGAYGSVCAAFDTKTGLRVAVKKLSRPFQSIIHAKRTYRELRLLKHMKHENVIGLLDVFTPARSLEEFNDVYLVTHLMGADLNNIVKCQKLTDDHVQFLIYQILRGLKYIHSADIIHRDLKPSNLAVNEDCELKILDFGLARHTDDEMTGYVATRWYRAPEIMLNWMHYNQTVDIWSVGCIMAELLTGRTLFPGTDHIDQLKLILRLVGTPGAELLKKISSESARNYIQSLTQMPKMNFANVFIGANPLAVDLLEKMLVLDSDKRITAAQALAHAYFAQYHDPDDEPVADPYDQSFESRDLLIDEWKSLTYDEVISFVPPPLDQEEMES

Target: T1, ING1b (pCI-ING1b plasmid) (human) (UniProt Q9UK53)
T1 sequence: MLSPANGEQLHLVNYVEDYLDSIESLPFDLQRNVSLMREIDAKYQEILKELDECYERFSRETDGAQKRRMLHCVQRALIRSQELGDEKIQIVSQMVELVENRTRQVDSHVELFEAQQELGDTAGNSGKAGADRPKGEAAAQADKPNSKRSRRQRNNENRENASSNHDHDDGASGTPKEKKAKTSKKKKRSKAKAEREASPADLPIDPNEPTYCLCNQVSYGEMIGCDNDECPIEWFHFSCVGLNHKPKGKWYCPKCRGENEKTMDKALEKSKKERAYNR
Test: co-IP; HEK293 cells transiently transfected with the indicated constructs, lysed in RIPA buffer, immunoprecipitated with anti-ING1, immunoblotted with anti-p38MAPK or anti-MEKK4; anti-GST immunoprecipitate as negative control

With “overexpressed MEKK4 (from UniProt Q9Y6R4 1-1608) (enzyme)” the binding was “binds”.

“overexpressed p38MAPK (from UniProt Q16539 1-360) (enzyme)” was tested, and the binding was “binds”.
